According to paper PMC11177981 (2024):
No constants are given. Whether binding was seen depends on the method and setting. In cells and extracts the contact can be indirect. Where a sequence is shown, tags or fusion partners need not be part of it.

Assays:
Assay in all cases: co-IP; HEK293T cells transfected with FLAG-tagged RIG-I or MDA5 constructs and Myc-tagged GLUT4; anti-FLAG magnetic beads on lysate (2% DDM, 25mM HEPES, 150mM NaCl)
FLAG-MDA5 ΔCARD = target: FLAG-MDA5 ΔCARD
[1] = target: FLAG-RIG-I C-terminal domain (CTD) (human)
FLAG-RIG-I ΔCARD (human) = target: FLAG-RIG-I ΔCARD (human)

Measured: binding

B1: GLUT4 (Myc-tagged) expressed in HEK293T cells (protein, UniProt P14672 1-509)
chain: MPSGFQQIGSEDGEPPQQRVTGTLVLAVFSAVLGSLQFGYNIGVINAPQKVIEQSYNETWLGRQGPEGPSSIPPGTLTTLWALSVAIFSVGGMISSFLIGIISQWLGRKRAMLVNNVLAVLGGSLMGLANAAASYEMLILGRFLIGAYSGLTSGLVPMYVGEIAPTHLRGALGTLNQLAIVIGILIAQVLGLESLLGTASLWPLLLGLTVLPALLQLVLLPFCPESPRYLYIIQNLEGPARKSLKRLTGWADVSGVLAELKDEKRKLERERPLSLLQLLGSRTHRQPLIIAVVLQLSQQLSGINAVFYYSTSIFETAGVGQPAYATIGAGVVNTVFTLVSVLLVERAGRRTLHLLGLAGMCGCAILMTVALLLLERVPAMSYVSIVAIFGFVAFFEIGPGPIPWFIVAELFSQGPRPAAMAVAGFSNWTSNFIIGMGFQYVAEAMGPYVFLLFAVLLLGFFIFTFLRVPETRGRTFDQISAAFHRTPSLLEQEVKPSTELEYLGPDEND
no binding: FLAG-MDA5 ΔCARD | [1] | FLAG-RIG-I ΔCARD (human)
